# In all, about 52,000 sequences went through this assay and about 210 (0.4%) were called active.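 How the source made its calls: active means gene whose silencing raises cell survival under the drug, median off-target-corrected z-score across its silencing RNAs 2 or more; inactive means the rest.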 Some of the results follow.
# Test: Resistance to Poly (ADP-Ribose) Polymerase inhibitor: Gene Identification via Genome-wide siRNA Screen
# Settings: mouse BRCA2 R2336H ES cells, olaparib, CellTiter-Glo viability; active compounds read high
# Summary of the method: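 Genome-wide siRNA screen (3 siRNAs/gene, 20 nM) in mouse ES cells carrying hypomorphic BRCA2 R2336H; olaparib 500 nM added 48 h post-transfection, CellTiter-Glo viability 72 h later. Normalized to plate-median negative control; MAD z-scores, gene median, seed-adjusted.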
row,Sequence,z-score
1,CCUCACUGUGGUAACAUUATT against Olfr452,inactive: -1.09
2,CCAAAUCGUCGCCAUUAAGTT against Cdk7,inactive: 0.0843
3,CCCUAGUGAUAAGGAAUGCTT against Cxcl9,inactive: -0.153
4,GUAUCGUUUGAGCAGAUCCTT against Cib1,inactive: 0.862
5,GGAAUUCACAGAAAUAAUGTT against Hmgcs2,inactive: -0.267
6,GGCAGGAAAACUGCCAAUGTT against LOC547347,inactive: -0.166
7,CCUGUAACCUUGCUUAAUGTT against Hoxc6,inactive: 0.401
8,GGAUCUCUAUGCUAACAACTT against Acta2,inactive: 0.00532
9,GCUAUAGCGCGGAAAUGGATT against BC056929,inactive: 0.969
10,GCACCUAGAUUGAUUGCAGTT against Olfr1186,inactive: -1.09
11,GCUGAUUGCCUCGGAGAAUTT against Shmt1,inactive: 1.13
12,GGAAGGUAUGGUACGAUGUTT against Rock1,inactive: -0.397
13,CGAAGCUCAACAGAUUCCUTT against Prlpf,inactive: 0.0664
14,GGCAAGUUCAAUAAAAUGUTT against Biklk,inactive: 0.792
15,GGAUGCAUGUCAUGUUUACTT against E430012M05Rik,inactive: -1.62
16,CCUGAUAGAAAAUCUCGACTT against Pld1,inactive: -0.379
17,GCAAGAGAAAUCCACGACUTT against Ncoa1,inactive: 0.527
18,GGUUUUCCACUCUUAUGGCTT against V1rb2,inactive: -0.163
19,AAUGCAAACAAUGCAAAUGTT against Mt2,inactive: 0.316
20,GGUCUUGGACCUCAGGAAGTT against 3110040N11Rik,inactive: 1.06
21,GGAGAAAGUCAAGACCCUCTT against Jund1,inactive: 0.286
22,AACUUUCCUGCUCUAACACTT against Olfr930,inactive: -1.61
23,GGCACCAUUGAAAUUCUGATT against Arbp,inactive: -1.91
24,GCCCAUGGACACAUCCAGUTT against Slc24a6,inactive: -2.19
25,GGCAGAUCAACCUCAGCAATT against AL033314,inactive: 0.531
26,GGGUACUGCUUCAACCAACTT against P2rx3,inactive: -0.0863
27,GGAGAGGGAUCAUAGAAAATT against Hey2,inactive: 1.59

# Part of the list above in a different format.
row	Sequence	z-score
10	GCACCUAGAUUGAUUGCAGTT against Olfr1186	inactive: -1.09
17	GCAAGAGAAAUCCACGACUTT against Ncoa1	inactive: 0.527

# The list continues.

row,Sequence,z-score
1,GGAAUGUGGUUUCCUGUUATT against Fscn3,inactive: -0.609
2,GGACUUCGUGUUCAUACAUTT against Tmie,inactive: -1.08
3,CCUUCGUAGCCUGUAUCAUTT against Myadm,inactive: -0.25
4,GCUCAUGUCCUAUAUUCAATT against Scfd2,inactive: 0.514
5,GGAAGUCGCCUACAUCCUUTT against Lenep,inactive: 0.573
6,CGUGGGUACAAUCAGAUAATT against C130032J12Rik,inactive: -0.485
7,GGAAAUUUACUAGGAGAACTT against Carf,inactive: 0.0892
8,GGCUGUUGUAUUCAGACCATT against Cmkor1,inactive: 0.817
9,GCAGAGCAAAGACCUGACUTT against 4930562D19Rik,inactive: 0.883
10,GCACAGAUUCCAUUAAAGATT against Rhbdl4,inactive: 1.19
11,GGAUUCGGAAUACUACGAUTT against Abo,inactive: 1.79
12,GGCAAAUGAGAAACAGCAATT against Cxcl16,inactive: 0.749
13,GGCUGAGACGGAAUCUUUATT against Bfsp2,inactive: 0.136
14,GCCAAUACACGUCUACUGATT against Gm1553,inactive: 0.00258
15,GAUUGGCUUCAAUCUAGUCTT against Olfr713,inactive: 0.0826
16,GGAAUACCAUGUUACAAUUTT against Reln,inactive: -0.0678
17,CCACCCUCUUCAUAACAGUTT against Crsp8,inactive: -0.339
18,GGAGAUCCUAAUCAUGUCATT against Kcmf1,inactive: 0.276
19,GGCCAAGGUACAAUCCACCTT against Gm996,inactive: 0.411
20,GCUGGCUGUUUCACUACAGTT against Tdh,inactive: 0.0389
21,GGCUGGUGACCUACAUCUUTT against Rhbdl7,inactive: 0.128
22,CCUCACCUUAAGUGUGUCATT against 1110058L19Rik,inactive: -1.7
23,GGGCAGAGUGAUGUUGUCATT against Gsdmdc1,inactive: -1.93
24,GGGAGACCUGCUACUAUUGTT against Gtf3c2,inactive: -0.0505
25,GCAAAUUCACCGGAAAAUGTT against Sh3d4,inactive: -1.44
26,GCAUAUACUCCAAAAGUCATT against Cldn8,inactive: 1.36
27,UGGCCUGAUCAUGAACAGUTT against S100a15,inactive: 1.62

# Shown as tab-separated lines: entries from further up
row	Sequence	z-score
3	CCUUCGUAGCCUGUAUCAUTT against Myadm	inactive: -0.25
4	GCUCAUGUCCUAUAUUCAATT against Scfd2	inactive: 0.514
5	GGAAGUCGCCUACAUCCUUTT against Lenep	inactive: 0.573
6	CGUGGGUACAAUCAGAUAATT against C130032J12Rik	inactive: -0.485

# Later entries

row,Sequence,z-score
1,GGUACACCCAGACAAGAACTT against 4930503B20Rik,inactive: 3.48
2,GGAAGGUUUGUUGUUUUGUTT against D10Ucla2,inactive: 0.932
3,GCAACAAGUUUGAUACCGATT against Chic1,inactive: -0.784
4,GGAUAACAAAAGUAUCCAGTT against Ikbke,inactive: 0.845
5,GGAGAACAUCACUGAUCCATT against Grin1,inactive: 1.1
6,GGAGGAGGUUCAUAUUAAATT against A330041J22Rik,inactive: 0.981
7,UCACAACUGUCUGUUCUCATT against Ngfg,inactive: -0.819
8,GGCAUCCCACUGAAGAACATT against Cmas,inactive: 0.295
9,GGACUUUGUGCAUUUGUUATT against Ly75,inactive: -1.15
10,CCAAAAGUGGAGAGCGACATT against 1500041B16Rik,inactive: -2.14
11,GGACUAUAAAAUGUCAUGGTT against Etsrp71,inactive: 0.232
12,GGGAAACCAUCGAUUUGAATT against Bmp5,inactive: -1.46
13,CGUAGGAGAACAAACAUCCTT against Tmc7,inactive: 1.3
14,CCCUUAGACAAACAUGCUATT against A630035I11Rik,inactive: 0.871
15,GCAUACUACAUGAUGUGGUTT against Spag7,inactive: 0.551
16,GGGUUUUGCUAUGUGGCCUTT against Farsla,inactive: 1.29
17,GCAACUCAAUCCAUGCAAATT against Senp8,inactive: 0.472
18,GCAAGAAAGCAUGGUAUAATT against B230315F11Rik,inactive: -1.56
19,GGUUAUGCUGGAGAUAAAUTT against Lama1,inactive: -0.386
20,GGCUGAGUGCUUCUAUCGUTT against A830008O07,inactive: -0.405
21,GGCUGUGAUUAGAGGAUGATT against Dnajc5,inactive: 0.235
22,GGGUUUUUCUGAAAAACAUTT against B230106I24Rik,inactive: 1.83
23,GCAUUCUGUUCGAGCUCCATT against BC037095,inactive: -3.19
24,CCUCAACUUUUCAAAAGACTT against Dlx5,inactive: -0.454
25,GGUCAUAGCCCUCUACAUATT against Rgr,inactive: -0.982
26,GGAGUUGUCGCACUACAUGTT against Bicd2,inactive: -1.28
27,GGAGUCAAAAAAAAUGCAATT against 2610028I09Rik,inactive: 0.582

row,Sequence,z-score
1,GGAUCUGGAGAAGAUGUUCTT against Efhd1,inactive: -0.354
2,GGCGUGUUGGAACAAGGAUTT against Cops8,inactive: -0.907
3,GGAAGUUUUCAGGCAAUUUTT against AA959601,inactive: -2.38
4,CCGUGUACUUUGGAUCUGGTT against Cox7c,inactive: -0.308
5,CGAUGAGAUGCGUAUUGAGTT against Card11,inactive: -0.977
6,GGUGUACGGUAUUUUGUUUTT against D330045A20Rik,inactive: 0.0853
7,GGCACACUUUCUACCUAAUTT against Tmem26,inactive: 0.734
8,GCGGCUAGGAUUUCUGGGATT against 2310047O13Rik,inactive: 0.169
9,GCAUACUUUUGUCAAGUCCTT against Dbhl1,inactive: 0.287
10,CCCUAAUAGGUCAAUAAAGTT against V1re13,inactive: 1.16
11,GGCCAACCUUGGUCUUAUGTT against Gpr146,inactive: -0.848
12,CCCAGUACAGCCUUGUGGUTT against 2610034E13Rik,inactive: 0.0537
13,GCUGUGCAGAUUAAAUUUGTT against Rsbn,inactive: 0.00681
14,CCUAAGGUCAAGAUAUAGCTT against 1200008O12Rik,inactive: 0.201
15,GGAAGUCACUCCUCUUGUUTT against Garnl1,inactive: -1.02
16,GGAAUCAAACUGGAUUGAUTT against Pi4k2b,inactive: 1.42
17,GGGUGCUGUGCACUAUUUCTT against Pcnxl3,inactive: 0.329
18,GGCACCAUCUAUUAUUUUCTT against Psmc3,inactive: -1.33
19,CCGAAGAUGUUCCUCGGAATT against Rpl6,inactive: -3.32
20,GGAGAAUGAGAUUGAGUGUTT against Rnf144,inactive: 0.159
21,GCUUUAUUUUUUCCACCUUTT against Olfr106,inactive: -0.481
22,GGAAAAGAUCUGUUUCUCATT against Mucdhl,inactive: 0.892
23,CCAACGCGAACGAGAACUATT against C1qb,inactive: -1.3
24,GGCUUUAACCGCAUCAUAGTT against G6pd2,inactive: -1.37

# Reference: PubChem BioAssay AID1347423 (Functional Genomics Laboratory (NCATS/FGL), 2020)
